Laboratory results from PubChem BioAssay AID1688 (National Center for Advancing Translational Sciences (NCATS), 2009).
About 2,400 (1.1%) of roughly 220,000 compounds were called active. This list was built around the results that the source calls inconclusive (neither active nor inactive); the mix of calls is not that of the screen. Calls follow the shape of the dose curve; as a rule, active = well fitted inhibition curve with a large enough effect; inconclusive = small, poorly fitted or top-dose-only effect, or effect the other way; inactive = no such curve, though single readings can be large or run the other way. Potencies of inconclusive entries are doubtful fits and often do not repeat.

Assay: qHTS Multiplex Assay to Identify Dual Action Probes in a Cell Model of Huntington: Aggregate Formation (GFP); also: nearly all actives have a fitted effect of over 60% in size
Conditions: PC12 HttQ103-GFP aggregates, Acumen cytometry, 40 h; activity change, negative = inhibition: at 46.1 µM (top of the series) unless noted
How it was run: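 Inducible Q103 Huntingtin exon 1–GFP PC12 line, 1500 cells/well in phenol red free DMEM with 5% equine and 5% calf serum. Tebufenozide 100 nM induced expression; compounds titrated; aggregates quantified by cytometry.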
% is scaled to controls: 0 for no effect and ±100 for the full control effect; potency is read from the fitted curve at half-maximal effect.

Row | Structure (SMILES) | Potency | activity change, negative = inhibition
1 | Cc1ccccc1-c1nc(CN2CCC(C(=O)NCCCN3CC(C)CC(C)C3)CC2)c(C)o1 (stereo not drawn) | inconclusive: 35.5 µM [inhibitor, single point] | 
2 | O=C(Nc1nc(-c2cccs2)c(-c2cccs2)s1)C1CCCC1 | inconclusive: 35.5 µM [inhibitor, single point] | 
3 | Cc1ccc(C(=O)N2CC(C)OC(C)C2)c(Cl)c1 (stereo not drawn) |  | inactive: -2.72% [at 9.22 µM]
4 | O=S(=O)(NCC(O)COCc1ccco1)c1cccs1 (stereo not drawn) |  | inactive: 14.5% [at 9.22 µM]
5 | O=C(NC(=S)Nc1nc(-c2cccc([N+](=O)[O-])c2)cs1)c1ccccc1Cl | inconclusive: 35.5 µM [inhibitor, single point] | 
6 | O=C(COC(=O)c1ccc2c(=O)n3c(nc2c1)CCC3)NC1CCS(=O)(=O)C1 (stereo not drawn) | active: 0.0063 µM | 
7 | O=C1NC(c2ccccc2)=C(c2nc3ccccc3s2)C(c2ccccc2)N1 (stereo not drawn) | inconclusive: 35.5 µM [inhibitor, single point] | 
8 | N#Cc1ccc(C(=O)Nc2nnc(-c3ccccn3)o2)cc1 | inconclusive: 2.51 µM [inhibitor, partial curve] | 
9 | O=C(Nc1ccccc1)Nc1ccc(Cl)c(S(=O)(=O)N2CCOCC2)c1 | inconclusive: 14.1 µM [inhibitor, single point] | 
10 | CCOC(=O)c1sc2nccc(N(C)C)c2c1N=CNOCc1c(F)cccc1Cl | inconclusive: 35.5 µM [inhibitor, single point] | 
11 | O=C(NC(=S)Nc1ccccc1)c1ccc(-c2ccccc2)cc1 |  | inactive: -16.7%
12 | NC(=O)c1ccc(-n2nnnc2Oc2ccccc2C(=O)N2CCOCC2)cc1 |  | inactive: 8.88%
13 | CCCCS/C(N)=N/N=C/c1cc(C)ccc1O | inconclusive: 35.5 µM [inhibitor, single point] | 
14 | Cc1ccc(O)c(C=Nc2ccc3[nH]ncc3c2)c1 | inconclusive: 35.5 µM [inhibitor, single point] | 
15 | O=C(COC(=O)CCS(=O)(=O)c1ccc(Cl)cc1)NCCc1ccccc1 | inconclusive: 6.31 µM [inhibitor, single point] | 
16 | CCN(CC)c1ccc(C(=O)N/N=C/c2ccccc2OC(F)F)cc1 | active: 10 µM | 
17 | Cc1nn(-c2ccccc2)c(C)c1C(=O)Nc1nnc(-c2ccco2)o1 | inconclusive: 8.91 µM [inhibitor, partial curve] | 
18 | Oc1ccccc1/C=N/Nc1nccnc1Cl | inconclusive: 1.12 µM [inhibitor, full curve] | 
19 | COc1cccc(Nc2nc(-c3sc(NC(=O)c4ccccc4)nc3C)cs2)c1 | inconclusive: 31.6 µM [inhibitor, single point] | 
20 | COC(=O)c1c(-c2ccc(F)cc2)csc1NC(=O)C1CCCO1 (stereo not drawn) | inconclusive: 15.8 µM [inhibitor, single point] | 
21 | O=C(NCc1ccccc1)c1c(O)c2cccc3c2n(c1=O)CCC3 | inconclusive: 35.5 µM [inhibitor, single point] | 
22 | COc1ccc(-c2csc(NC(=O)c3ccco3)n2)cc1 | inconclusive: 20 µM [inhibitor, single point] | 

Row | Structure (SMILES) | Potency | activity change, negative = inhibition
23 | COc1ccccc1CCn1cnc2c3cc(C)ccc3n(C)c2c1=O | inconclusive: 25.1 µM [inhibitor, single point] | 
24 | COC(=O)c1cn(NC(=O)COc2ccc(Cl)cc2)c(=O)c2ccccc12 | inconclusive: 0.0891 µM [activator, full curve, poor fit] | 
25 | O=[N+]([O-])c1ccccc1SN(Cc1ccccc1)c1ccccn1 | inconclusive: 31.6 µM [activator, single point] | 
26 | O=S(Cc1ccccc1)CC(O)(c1ccc(Cl)cc1)c1ccc(Cl)cc1 (stereo not drawn) | inconclusive: 14.1 µM [inhibitor, single point] | 
27 | COc1ccc(-c2csc(C)n2)cc1 |  | inactive: 4.55%
28 | CCOc1ccc(S(=O)(=O)Nc2cccc(C(=O)N3CCN(c4ccc(OC)cc4)CC3)c2)cc1 | inconclusive: 25.1 µM [inhibitor, single point] | 
29 | CCCC1/C(=N/O)CC(c2ccccc2)NC1c1ccccc1 (stereo not drawn) | inconclusive: 22.4 µM [inhibitor, single point] | 
30 | Cc1c(NC(=O)CN2C(=O)NC(C)(c3ccccc3)C2=O)c(=O)n(-c2ccccc2)n1C (stereo not drawn) | inconclusive: 1.26 µM [inhibitor, single point] | 
31 | CC[N+]1(CC)CC2CCC(C)(C1)C2(C)C (stereo not drawn) |  | inactive: -19.8%
32 | COc1ccccc1C1C(C(=O)c2cc3ccccc3o2)=C(O)C(=O)N1CCN(C)C (stereo not drawn) | inconclusive: 5.62 µM [inhibitor, single point] | 
33 | C=CCn1c(SCC(=O)c2cc(C)n(C(C)COC)c2C)nc2sc(C)c(C)c2c1=O (stereo not drawn) | inconclusive: 25.1 µM [inhibitor, single point] | 
34 | N#C/C(=C\c1c[nH]c2ccccc12)C(=O)Nc1ncc(Cc2ccc(Cl)cc2Cl)s1 | inconclusive: 15.8 µM [inhibitor, single point] | 
35 | O=C(CCN1CCCC1)c1cccs1 |  | inactive: 0.943% [at 9.22 µM]
36 | O=C(CSc1nnnn1-c1ccccc1)c1cc2ccccc2oc1=O | inconclusive: 3.16 µM [activator, partial curve] | 
37 | CC1CCCC(C)N1NC(=O)c1ccc(Cl)c(S(N)(=O)=O)c1 (stereo not drawn) | inconclusive: 5.62 µM [activator, single point] | 
38 | CC(=O)c1c(C)[nH]c(C(=O)OCc2nnc(-c3ccccc3)o2)c1C | inconclusive: 25.1 µM [inhibitor, single point] | 
39 | CCOc1cc(/C=C2\SC(=Nc3ccccc3)N(c3ccccc3)C2=O)ccc1OCC(=O)O |  | inactive: 25.2%
40 | CCOC(=O)C1=C(CC)Nc2ccccc2N=C1NC(=O)Nc1ccc(Cl)c(Cl)c1 |  | inactive: -88.5%
41 | CCN(CC)C(=S)SCC(=O)NC12CC3CC(CC(C3)C1)C2 | inconclusive: 3.55 µM [inhibitor, partial curve] | 
42 | C=CCc1c(C)nc(SCc2nc3ccccc3c(=O)[nH]2)[nH]c1=O | inconclusive: 2 µM [activator, partial curve] | 
43 | CCCN1C(=O)c2cc(C(=O)NC3CCCCCC3)ccc2C1O (stereo not drawn) |  | inactive: -12.9%

Complete entries, looked up by structure:
`COC(=O)c1cn(NC(=O)COc2ccc(Cl)cc2)c(=O)c2ccccc12` is listed with Potency: inconclusive: 0.0891 µM [activator, full curve, poor fit]
`CC(=O)c1c(C)[nH]c(C(=O)OCc2nnc(-c3ccccc3)o2)c1C` is listed with Potency: inconclusive: 25.1 µM [inhibitor, single point]
`O=S(Cc1ccccc1)CC(O)(c1ccc(Cl)cc1)c1ccc(Cl)cc1` (stereo not drawn) is listed with Potency: inconclusive: 14.1 µM [inhibitor, single point]
